Data taken from PubChem BioAssay AID540276 (National Center for Advancing Translational Sciences (NCATS), 2011).
Among all 300,000 compounds or so, about 5,400 (1.8%) were called active. The shares of active, inactive and inconclusive entries below differ from those in the screen. Calls follow the shape of the full dose curve; tested in HEK293 cells. Where the call is inconclusive, the potency comes from a doubtful curve fit.

Assay: qHTS for inhibitors of binding or entry into cells for Marburg Virus
Conditions: Marburg virus pseudotyped entry inhibition, cell reporter; series mostly up to 37.8 µM
Potency is read from the fitted curve at half-maximal effect.

| SMILES | Potency |
| --- | --- |
| O=C1NC(=O)C(=Cc2ccc(N3CCOCC3)o2)C(=O)N1 | inactive |
| COc1ccc(-c2ccc(-c3noc(-c4ccccc4OC)n3)c(OC)n2)cc1 | inactive |
| CCN(CC)S(=O)(=O)c1ccc(-c2nnc(SCc3nnc(-c4ccccc4)o3)o2)cc1 | inconclusive: 23.1 µM [inhibitor, single point] |
| CCc1ccc(-n2c(=O)c3c4c(sc3n(Cc3ccccc3C#N)c2=O)CCC4)cc1 | inactive |
| CCc1cc2ccc(C)cc2nc1SCC(=O)N1CCN(C(=O)c2ccco2)CC1 | inconclusive: 15.8 µM [inhibitor, partial curve, poor fit] |
| COC(=O)c1cc(C(=O)c2c(C)cc3ccccn23)cc([N+](=O)[O-])c1 | inconclusive: 8.91 µM [inhibitor, partial curve, poor fit] |
| Cc1ccc(-n2cc(CNCCc3cscn3)c(-c3ccc(F)cc3)n2)cc1 | active: 12.6 µM |
| COc1cc2c(cc1OC)CN(Cc1cc(=O)oc3c(C)c(C)ccc13)CC2 | inconclusive: 35.5 µM [inhibitor, single point] |
| CCc1ccc(/C=C/c2c[nH]c3ccccc23)[n+](CC)c1 | inconclusive: 7.08 µM [inhibitor, partial curve, poor fit] |
| C/C(=N\NC(=O)c1ccccc1O)c1ccc(NC(=O)c2ccccc2)cc1 | inconclusive: 3.55 µM [activator, single point] |
| CC1=NOC(=O)/C1=C\c1ccc(-c2ccc(Br)cc2C(=O)O)o1 | inactive |
| Cc1nn2c(NCCOCCO)c3c(nc2c1-c1ccccc1)CCCC3 | inconclusive: 23.1 µM [inhibitor, partial curve, poor fit] |
| O=C(/C=C/c1ccc2c(c1)OCCCO2)c1ccc2ccccc2c1O | inconclusive: 13 µM [activator, partial curve] |
| CC(=O)NNC(=S)NC(=O)c1ccccc1 | inactive |
| Cc1ccc(N(C(=O)c2cc3ccccc3oc2=O)C2C=CS(=O)(=O)C2)cc1 (configuration not stated) | inactive |
| CC1Cc2ccccc2N1C(=O)Cn1cc([N+](=O)[O-])ccc1=O (configuration not stated) | inconclusive: 0.355 µM [inhibitor, partial curve, poor fit] |
| COc1ccc(/C=C/C(=O)NC(=S)N2CCSCC2)cc1 | inconclusive: 3.55 µM [activator, full curve, poor fit] |
| COC(=O)c1c(C)oc2ccc(N(C(=O)c3ccncc3)S(=O)(=O)c3ccc(OC)cc3)cc12 | inconclusive: 1.41 µM [inhibitor, full curve] |
| CC(NC(=O)CC(c1ccccc1)c1cc(Cl)ccc1O)c1ccccc1 (configuration not stated) | inactive |
| N#Cc1sc(NCc2cccc(Cl)c2)nc1Cl | inconclusive: 11.2 µM [inhibitor, single point] |
| O=C(NC(=S)N(Cc1ccccc1)c1ccccn1)C1CCCCC1 | inconclusive: 3.98 µM [inhibitor, single point] |
| COc1cccc(OC)c1C(=O)N1CCNCC1 | inconclusive: 12.6 µM [inhibitor, single point] |
| COCCn1nnnc1C(c1ccc(O)c(OC)c1)N1CCc2ccccc2C1 (configuration not stated) | inconclusive: 15.8 µM [activator, single point] |

As a short view, some entries already given.

| SMILES | Potency |
| --- | --- |
| CCc1ccc(-n2c(=O)c3c4c(sc3n(Cc3ccccc3C#N)c2=O)CCC4)cc1 | inactive |
| CCc1cc2ccc(C)cc2nc1SCC(=O)N1CCN(C(=O)c2ccco2)CC1 | inconclusive: 15.8 µM [inhibitor, partial curve, poor fit] |
| COC(=O)c1cc(C(=O)c2c(C)cc3ccccn23)cc([N+](=O)[O-])c1 | inconclusive: 8.91 µM [inhibitor, partial curve, poor fit] |
| Cc1ccc(-n2cc(CNCCc3cscn3)c(-c3ccc(F)cc3)n2)cc1 | active: 12.6 µM |
| COc1cc2c(cc1OC)CN(Cc1cc(=O)oc3c(C)c(C)ccc13)CC2 | inconclusive: 35.5 µM [inhibitor, single point] |
| CCc1ccc(/C=C/c2c[nH]c3ccccc23)[n+](CC)c1 | inconclusive: 7.08 µM [inhibitor, partial curve, poor fit] |

(list continues)

| SMILES | Potency |
| --- | --- |
| CCOc1ccc(NC(=O)NCCN2C(C)CCCC2C)cc1 (configuration not stated) | inconclusive: 0.82 µM [inhibitor, partial curve, poor fit] |
| O=C(c1ccco1)N1CCN(C(c2ccccc2)c2nnnn2Cc2cccs2)CC1 (configuration not stated) | inconclusive: 17.8 µM [inhibitor, single point] |
| CCC(=O)NC(c1ccc(OC)cc1)c1cc(Cl)c2cccnc2c1O (configuration not stated) | active: 2.24 µM |
| COc1ccc(OC)c(NC(=O)COC(=O)C2CCC2)c1 | inconclusive: 0.1 µM [activator, full curve, poor fit] |
| Cc1cc(N2CCCC2)nc2ccc(NC(=S)NCCCOC(C)C)cc12 | inconclusive: 18.3 µM [inhibitor, partial curve, poor fit] |
| COc1cccc(-c2nc(CS(=O)(=O)CC(=O)NCc3cccc(Cl)c3)c(C)o2)c1 | inactive |
| CN(C)C(=O)CCc1ccc2c3c([nH]c2c1)[C@]1(C)[C@@H](C(=O)N2CCCCC2)C[C@H](CC(=O)NCC24CC5CC(CC(C5)C2)C4)C(=O)N1CC3 | inactive |
| CCN1CCN(Cc2ccc(NC(=O)Nc3cccs3)cc2)CC1 | inconclusive: 31.6 µM [inhibitor, single point] |
| COc1ccc(OCC(=O)NC2CCCc3ccccc32)cc1 (configuration not stated) | inactive |
| Cc1cc2n(c(=O)c1C#N)CCCN2c1ccccc1 | inconclusive: 29.1 µM [activator, single point] |
| COCCNC(=O)c1cccc(OC2CCN(Cc3ccc(C(C)C)cc3)CC2)c1 | inconclusive: 12.6 µM [inhibitor, partial curve, poor fit] |
| Cc1ccc2c(c1)C1CN(C)CCC1N2C(=O)Nc1ccc(Cl)cc1 (configuration not stated) | inconclusive: 20.6 µM [inhibitor, single point] |
| CC(OC(=O)Nc1cccc(Cl)c1)C(=O)OC1CCCCC1 (configuration not stated) | inconclusive: 0.708 µM [activator, single point] |
| COc1ccc([N+](=O)[O-])cc1NC(=O)C(C)OC(=O)Cc1ccc(OC)c(OC)c1 (configuration not stated) | inconclusive: 0.282 µM [inhibitor, partial curve, poor fit] |
| Nn1c(SCc2cn3ccsc3n2)nnc1-c1ccncc1 | inactive |
| Cc1c(C(=O)NCc2ccco2)cccc1[N+](=O)[O-] | inconclusive: 0.251 µM [activator, full curve, poor fit] |
| COCCNC(=O)c1nn(-c2ccc(C)cc2)c(=O)c2c1c1ccccc1n2C | inactive |
| O=C(c1cnn2cccnc12)N1CCN(c2ccccc2)CC1 | inconclusive: 6.51 µM [activator, full curve, poor fit] |
| Cc1ccc(-c2cc3ccccc3nc2N2CCCC2)cc1 | inconclusive: 35.5 µM [inhibitor, partial curve, poor fit] |
| CCOC(=O)c1cc2oc(C)cc2n1CC(=O)OC1CCCCC1 | inconclusive: 0.291 µM [inhibitor, partial curve, poor fit] |
| O=C(CN1CCSC1=NCc1ccccc1)c1ccc(Cl)cc1 | inactive |
| CCC1=[N+](CC(=O)c2ccc(C)cc2)CCn2cccc21 | inactive |
| CCCOP(=O)(c1ccc(N(C)C)cc1)C(O)c1c(Cl)cccc1Cl (configuration not stated) | inconclusive: 1.26 µM [activator, single point] |

| SMILES | Potency |
| --- | --- |
| CCc1ccc(/C=N/n2c(C)cc(C)c(C#N)c2=O)cc1 | inactive |
| COc1c(C)cccc1C(=O)Nc1ccc(-c2nc3ccccc3s2)c(Cl)c1 | inactive |
| CCc1nnc(NC(=O)CSc2nc3cc(OC)c(OC)cc3cc2C)s1 | inconclusive: 1.58 µM [inhibitor, full curve, poor fit] |
| O=C(NC1CCCC1)C(c1ccccn1)N(C(=O)c1csnn1)C1CC1 (configuration not stated) | inconclusive: 29.1 µM [activator, single point] |
| COc1cc(CN/C(C)=C(\C#N)C(N)=O)cc(OC)c1OC | inactive |
| O=C(CSc1ncc(-c2ccccc2)n1C1CCCC1)N1CCc2ccccc21 | inconclusive: 25.9 µM [inhibitor, single point] |
| CCN(C(=O)COC(=O)c1ccc(COc2ccc3c(C)cc(=O)oc3c2)cc1)C1CCS(=O)(=O)C1 (configuration not stated) | inconclusive: 3.16 µM [activator, partial curve, poor fit] |
| Fc1ccc(-c2[nH]ncc2-c2nnnn2-c2ccccc2)c(F)c1 | inactive |
| COc1ccc2oc(C(=O)N3CCN(C(c4ccccc4)c4ccccc4)CC3)c(C)c2c1 | inconclusive: 7.08 µM [inhibitor, partial curve, poor fit] |
| COc1cccc(CN2CCN(C(=O)c3ccc(-c4ccccc4)cc3)CC2)c1OC | inconclusive: 32.6 µM [inhibitor, single point] |
| Nc1ccc2nc(-c3ccccc3)sc2c1 | inconclusive: 7.08 µM [inhibitor, partial curve, poor fit] |
| COC(=O)c1cc2c(n1S(=O)(=O)c1ccc(C)cc1)C(=O)C(=O)c1[nH]cc(C(=O)OCc3ccccc3)c1-2 | inconclusive: 3.16 µM [inhibitor, full curve, poor fit] |
| Cc1c(C(=O)NCc2cccc(Br)c2)oc2ccc3c(c12)C(=O)CC(C)(C)O3 | inactive |
| CS(=O)(=O)N(CCc1ccccc1)CC(=O)N1CCN(c2ccccc2F)CC1 | inconclusive: 17.8 µM [inhibitor, partial curve, poor fit] |
| CNCCC1Sc2ccccc2Oc2ccccc21 (configuration not stated) | inconclusive: 1.26 µM [inhibitor, partial curve, poor fit] |
| O=C(NCC(=O)N1CCOCC1)c1ccc(Cl)c(Cl)c1 | inconclusive: 5.01 µM [activator, full curve, poor fit] |
| COc1ccc([N+](=O)[O-])cc1NC(=O)CSCc1cc(C)cc(C)c1 | inconclusive: 7.31 µM [inhibitor, partial curve, poor fit] |
| COc1ccc(C2c3c(oc4c(C)cc(C)cc4c3=O)C(=O)N2Cc2cccnc2)cc1OC (configuration not stated) | inactive |
| Cc1ccc(N2C(=O)c3ccc(C(=O)N4CCN(c5ccc(C)c(C)c5)CC4)cc3C2=O)cc1 | inactive |
| COc1ccc(CCNC(=O)CN2C(=O)COc3ccc(S(=O)(=O)N4CCCC4)cc32)c(OC)c1 | inconclusive: 7.08 µM [inhibitor, partial curve, poor fit] |
| CN(C(=O)Oc1ccc(C(=O)c2ccc(Cl)cc2)cc1)c1ccccc1 | inconclusive: 1.26 µM [activator, single point] |
